Test results reported in PubChem BioAssay AID1918957 (Molecular Pharmacology Branch, DTP, NCI, 2023).
Values joined by “and” are separate entries in the source; they are usually repeats but may differ in a detail not shown here. Identical values can stand only once. Further values from the same series stand in other lists.

Test system: NCI-H1876 complex spheroid viability
Assay: Anticancer human tumor NCI-H1876 cell line growth inhibition [LSD1];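 note: spheroids exposed to compounds for one week before readout; 100% = DMSO vehicle-treated spheroids so lower means fewer viable cells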
Conditions: active compounds read low
Description: Multicellular complex tumor spheroid response to LSD1 Inhibitor Iadademstat in combination with a variety of drugs and investigational agents in selected tumor cell lines
The current study was undertaken to assess response to LSD1 inhibitors in combination with standard-of-care drugs and investigational agents in solid tumor complex spheroid models as well as in the K-562 leukemia. Complex spheroids include a stromal component modeled by human endothelial cells (HUVEC) and fibroblasts modeled by human mesenchymal stem cells (MSCs). The concentration ranges selected for each drug and investigational agent were based upon clinically achievable concentrations if the clinical Cmax of the agent was known.
Compounds. The drugs and investigational agents used in this study are listed on Table 1. All of the agents used, including staurosporine (NSC755774) and gemcitabine (NSC613327), were obtained from the Developmental Therapeutics Program, NCI. FDA-approved anticancer drugs are available from the NCI at http://dtp.nci.nih.gov/branches/dscb/oncology_drugset_explanation.html. Drugs and investigational agents were >95% pure by proton nuclear magnetic resonance (NMR) and liquid chromatography/mass spectrometry (LC/MS). […] If the clinical Cmax for an agent had not been determined, the highest concentration tested was 10 microM. […]

**Q.** How did the viability, T/C (compound 0.316 µM) turn out when `NC1CCC(NC2CC2c2ccccc2)CC1` (configuration not stated) was run?
**A.** 104% [middle of 22 runs]

**Q.** And the viability, T/C (compound 10 µM)?
**A.** 93.7% and 96.2%
